Laboratory results from US20030232862A1 (priority 2002, published 2003).
Some entries share one result that the patent states for a list of compounds.

Target: cGMP PDE purified from human colon HT-29 cultured tumor cells (Homo sapiens, UniProt O76074)
Assay: cGMP PDE inhibition assay
Assay type: biochemical
Settings: listed as compound E

SMILES: COc1cc(/C=C2/C(C)=C(CC(=O)NCc3ccccc3)c3cc(F)ccc32)cc(OC)c1OC [Compound E, (Z)-5-Fluoro-2-methyl-1-(3,4,5-trimethoxybenzylidene)-3-indenylacetamide, N-benzyl]
- % Inhibition at 10 μM (cGMP PDE): greater than 50%
